# Article PMC4669791
# By UniProt entry, the sequences of proteins in these tests, tags left out. Residues count along the entry.
# UniProt P61604: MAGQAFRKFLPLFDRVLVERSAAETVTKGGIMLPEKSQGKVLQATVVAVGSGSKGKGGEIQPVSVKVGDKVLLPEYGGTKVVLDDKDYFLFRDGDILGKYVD
# UniProt P11021, residues 19-654: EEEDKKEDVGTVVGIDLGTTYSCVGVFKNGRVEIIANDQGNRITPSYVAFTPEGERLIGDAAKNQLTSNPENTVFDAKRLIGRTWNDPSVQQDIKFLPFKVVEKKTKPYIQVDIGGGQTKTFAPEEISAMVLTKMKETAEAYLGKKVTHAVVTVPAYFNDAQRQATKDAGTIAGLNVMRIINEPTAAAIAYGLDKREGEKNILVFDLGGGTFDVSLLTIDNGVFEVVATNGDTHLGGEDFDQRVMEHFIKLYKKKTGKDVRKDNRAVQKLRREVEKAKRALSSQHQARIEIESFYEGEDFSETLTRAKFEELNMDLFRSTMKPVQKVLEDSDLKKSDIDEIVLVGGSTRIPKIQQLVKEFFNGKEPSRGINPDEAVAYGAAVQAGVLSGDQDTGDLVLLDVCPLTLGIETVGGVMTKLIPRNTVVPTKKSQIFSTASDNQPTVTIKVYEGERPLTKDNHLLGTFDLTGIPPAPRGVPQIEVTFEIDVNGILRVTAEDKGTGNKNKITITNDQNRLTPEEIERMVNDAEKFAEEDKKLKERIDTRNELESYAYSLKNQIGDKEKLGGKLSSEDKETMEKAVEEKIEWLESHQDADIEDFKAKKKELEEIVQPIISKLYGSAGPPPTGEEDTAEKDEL
# UniProt P07355: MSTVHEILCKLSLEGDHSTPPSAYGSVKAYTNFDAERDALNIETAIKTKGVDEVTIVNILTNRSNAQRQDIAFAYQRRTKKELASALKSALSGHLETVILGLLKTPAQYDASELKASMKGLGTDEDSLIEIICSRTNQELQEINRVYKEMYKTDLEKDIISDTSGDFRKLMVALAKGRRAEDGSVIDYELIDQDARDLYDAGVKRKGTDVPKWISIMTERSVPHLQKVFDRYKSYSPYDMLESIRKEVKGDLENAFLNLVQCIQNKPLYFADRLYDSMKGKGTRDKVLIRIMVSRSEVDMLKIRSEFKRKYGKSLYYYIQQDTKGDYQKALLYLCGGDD
# UniProt P35579: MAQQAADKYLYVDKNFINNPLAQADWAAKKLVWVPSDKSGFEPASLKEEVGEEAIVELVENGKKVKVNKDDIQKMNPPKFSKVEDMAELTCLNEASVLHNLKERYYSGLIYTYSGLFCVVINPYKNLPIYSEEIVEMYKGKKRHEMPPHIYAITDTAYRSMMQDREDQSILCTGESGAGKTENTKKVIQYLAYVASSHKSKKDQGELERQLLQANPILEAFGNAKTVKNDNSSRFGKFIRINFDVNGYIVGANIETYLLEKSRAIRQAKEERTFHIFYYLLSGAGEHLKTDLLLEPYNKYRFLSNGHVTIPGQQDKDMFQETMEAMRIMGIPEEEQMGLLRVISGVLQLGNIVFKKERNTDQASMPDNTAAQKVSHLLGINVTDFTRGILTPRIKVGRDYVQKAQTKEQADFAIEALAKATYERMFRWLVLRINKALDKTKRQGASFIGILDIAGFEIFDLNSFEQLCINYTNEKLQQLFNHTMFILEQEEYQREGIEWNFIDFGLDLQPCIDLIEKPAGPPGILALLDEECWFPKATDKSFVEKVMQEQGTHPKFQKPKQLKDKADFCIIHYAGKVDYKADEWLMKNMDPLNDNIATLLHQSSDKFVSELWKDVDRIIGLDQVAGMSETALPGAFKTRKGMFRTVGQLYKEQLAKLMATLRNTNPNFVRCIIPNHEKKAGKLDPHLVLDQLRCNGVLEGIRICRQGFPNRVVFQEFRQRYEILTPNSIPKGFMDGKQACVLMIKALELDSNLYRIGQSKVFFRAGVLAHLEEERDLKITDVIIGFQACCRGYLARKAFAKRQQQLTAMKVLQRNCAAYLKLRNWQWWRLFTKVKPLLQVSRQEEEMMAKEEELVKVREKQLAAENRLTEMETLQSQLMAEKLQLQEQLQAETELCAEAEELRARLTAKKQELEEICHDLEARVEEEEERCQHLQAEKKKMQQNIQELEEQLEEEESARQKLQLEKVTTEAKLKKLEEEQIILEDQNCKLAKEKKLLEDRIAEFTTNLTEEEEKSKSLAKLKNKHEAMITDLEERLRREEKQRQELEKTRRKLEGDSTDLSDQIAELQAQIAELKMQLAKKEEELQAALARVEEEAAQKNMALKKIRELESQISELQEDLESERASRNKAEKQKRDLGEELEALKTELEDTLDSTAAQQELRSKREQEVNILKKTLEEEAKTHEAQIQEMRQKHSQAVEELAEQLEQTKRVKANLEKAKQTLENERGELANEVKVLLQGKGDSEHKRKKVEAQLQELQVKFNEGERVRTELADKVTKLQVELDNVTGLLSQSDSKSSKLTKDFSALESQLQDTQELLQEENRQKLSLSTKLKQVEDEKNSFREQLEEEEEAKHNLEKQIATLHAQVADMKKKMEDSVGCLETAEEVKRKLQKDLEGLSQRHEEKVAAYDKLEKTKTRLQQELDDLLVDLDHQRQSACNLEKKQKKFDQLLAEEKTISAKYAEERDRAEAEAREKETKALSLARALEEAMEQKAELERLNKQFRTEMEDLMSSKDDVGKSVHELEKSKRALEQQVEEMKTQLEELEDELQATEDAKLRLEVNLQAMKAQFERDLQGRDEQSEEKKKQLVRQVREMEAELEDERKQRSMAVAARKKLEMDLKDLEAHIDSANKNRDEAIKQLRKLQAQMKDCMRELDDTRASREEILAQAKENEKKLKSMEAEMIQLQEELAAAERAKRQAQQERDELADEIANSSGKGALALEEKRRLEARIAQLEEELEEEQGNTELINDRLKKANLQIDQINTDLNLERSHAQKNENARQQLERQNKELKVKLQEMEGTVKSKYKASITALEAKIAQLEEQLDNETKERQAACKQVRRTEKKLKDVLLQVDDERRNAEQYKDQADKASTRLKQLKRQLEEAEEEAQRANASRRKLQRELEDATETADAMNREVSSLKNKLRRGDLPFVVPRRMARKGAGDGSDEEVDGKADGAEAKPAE
# UniProt P35580: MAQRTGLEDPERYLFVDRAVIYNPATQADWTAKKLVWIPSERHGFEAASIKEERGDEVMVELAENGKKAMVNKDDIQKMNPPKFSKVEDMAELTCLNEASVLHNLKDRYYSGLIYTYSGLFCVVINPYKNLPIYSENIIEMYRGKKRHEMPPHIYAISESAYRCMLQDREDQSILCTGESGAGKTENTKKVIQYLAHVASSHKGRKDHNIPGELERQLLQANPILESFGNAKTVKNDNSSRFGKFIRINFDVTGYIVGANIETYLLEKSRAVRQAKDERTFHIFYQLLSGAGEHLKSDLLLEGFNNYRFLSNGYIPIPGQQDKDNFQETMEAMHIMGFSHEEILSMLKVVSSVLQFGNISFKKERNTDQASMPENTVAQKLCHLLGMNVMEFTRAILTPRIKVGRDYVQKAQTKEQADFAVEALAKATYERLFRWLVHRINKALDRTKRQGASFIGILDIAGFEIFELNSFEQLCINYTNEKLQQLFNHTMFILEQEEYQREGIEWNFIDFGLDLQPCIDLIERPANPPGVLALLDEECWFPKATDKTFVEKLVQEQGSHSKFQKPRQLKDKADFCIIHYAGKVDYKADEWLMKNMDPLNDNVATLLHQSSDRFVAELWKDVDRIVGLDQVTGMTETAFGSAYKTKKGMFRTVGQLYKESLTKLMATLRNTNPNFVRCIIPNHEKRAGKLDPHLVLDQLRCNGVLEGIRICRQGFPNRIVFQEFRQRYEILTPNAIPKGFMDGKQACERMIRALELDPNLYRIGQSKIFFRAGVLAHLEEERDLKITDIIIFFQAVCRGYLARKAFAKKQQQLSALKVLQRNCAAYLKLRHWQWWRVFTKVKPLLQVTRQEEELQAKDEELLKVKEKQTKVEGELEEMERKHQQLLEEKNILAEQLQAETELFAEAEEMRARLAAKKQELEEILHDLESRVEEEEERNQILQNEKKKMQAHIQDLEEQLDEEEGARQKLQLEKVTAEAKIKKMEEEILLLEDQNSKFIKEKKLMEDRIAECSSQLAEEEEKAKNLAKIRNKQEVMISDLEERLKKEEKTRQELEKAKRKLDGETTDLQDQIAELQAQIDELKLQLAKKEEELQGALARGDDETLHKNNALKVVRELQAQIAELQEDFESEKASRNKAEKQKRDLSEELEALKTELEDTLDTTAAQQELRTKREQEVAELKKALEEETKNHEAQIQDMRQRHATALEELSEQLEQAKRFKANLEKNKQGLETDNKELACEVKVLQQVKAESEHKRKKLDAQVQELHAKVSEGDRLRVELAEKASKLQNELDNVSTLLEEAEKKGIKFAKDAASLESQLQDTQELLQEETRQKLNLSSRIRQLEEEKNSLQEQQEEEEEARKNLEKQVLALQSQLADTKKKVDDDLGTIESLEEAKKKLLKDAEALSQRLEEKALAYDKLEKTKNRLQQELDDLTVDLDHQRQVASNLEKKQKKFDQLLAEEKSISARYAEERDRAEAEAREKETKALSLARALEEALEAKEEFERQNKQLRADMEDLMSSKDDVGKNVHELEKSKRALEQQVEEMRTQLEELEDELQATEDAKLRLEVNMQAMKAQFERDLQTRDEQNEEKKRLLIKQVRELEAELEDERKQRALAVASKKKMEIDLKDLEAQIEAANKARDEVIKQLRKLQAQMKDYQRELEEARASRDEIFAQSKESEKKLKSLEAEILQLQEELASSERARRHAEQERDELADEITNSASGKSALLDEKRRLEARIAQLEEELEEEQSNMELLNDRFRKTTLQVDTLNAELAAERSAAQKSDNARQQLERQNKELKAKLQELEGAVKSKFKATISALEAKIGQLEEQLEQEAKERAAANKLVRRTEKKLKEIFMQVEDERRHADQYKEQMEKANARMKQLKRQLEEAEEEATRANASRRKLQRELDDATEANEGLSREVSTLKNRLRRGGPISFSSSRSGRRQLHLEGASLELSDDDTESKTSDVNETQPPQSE
# UniProt O00217, residues 35-210: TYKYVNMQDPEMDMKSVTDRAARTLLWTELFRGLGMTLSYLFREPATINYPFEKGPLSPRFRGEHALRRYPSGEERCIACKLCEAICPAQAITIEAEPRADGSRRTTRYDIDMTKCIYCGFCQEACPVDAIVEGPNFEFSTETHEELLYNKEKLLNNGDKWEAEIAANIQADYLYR
# UniProt P38646, residues 47-679: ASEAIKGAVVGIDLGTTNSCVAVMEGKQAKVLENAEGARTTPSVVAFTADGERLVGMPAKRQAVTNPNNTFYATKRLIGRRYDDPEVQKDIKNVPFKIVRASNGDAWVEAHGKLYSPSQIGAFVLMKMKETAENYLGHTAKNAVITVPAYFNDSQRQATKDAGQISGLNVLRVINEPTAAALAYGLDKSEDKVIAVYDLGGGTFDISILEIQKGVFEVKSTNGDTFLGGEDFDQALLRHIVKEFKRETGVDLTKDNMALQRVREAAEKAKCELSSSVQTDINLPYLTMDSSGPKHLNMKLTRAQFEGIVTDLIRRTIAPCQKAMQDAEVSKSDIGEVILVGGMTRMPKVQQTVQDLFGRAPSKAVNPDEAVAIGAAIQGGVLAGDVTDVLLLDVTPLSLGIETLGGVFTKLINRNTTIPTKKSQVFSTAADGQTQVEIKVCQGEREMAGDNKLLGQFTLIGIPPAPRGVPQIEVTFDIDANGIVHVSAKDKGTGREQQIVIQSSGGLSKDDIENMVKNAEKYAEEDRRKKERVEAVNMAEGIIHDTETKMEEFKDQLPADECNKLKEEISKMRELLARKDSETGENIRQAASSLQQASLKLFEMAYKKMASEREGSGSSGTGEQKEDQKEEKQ
# Tests used:
# [1] = target: T1, Human Lon protease with Myc tag (human) (UniProt P36776); assay: affinity purification with mass spectrometry; Lon-myc immunocomplex from 293/Lon lysate on anti-c-Myc agarose, washed with NETN, eluted by 6 M urea, in-solution digestion, shotgun nanoLC-MS/MS; three experiments, 293/myc cells as negative control
# T1 sequence: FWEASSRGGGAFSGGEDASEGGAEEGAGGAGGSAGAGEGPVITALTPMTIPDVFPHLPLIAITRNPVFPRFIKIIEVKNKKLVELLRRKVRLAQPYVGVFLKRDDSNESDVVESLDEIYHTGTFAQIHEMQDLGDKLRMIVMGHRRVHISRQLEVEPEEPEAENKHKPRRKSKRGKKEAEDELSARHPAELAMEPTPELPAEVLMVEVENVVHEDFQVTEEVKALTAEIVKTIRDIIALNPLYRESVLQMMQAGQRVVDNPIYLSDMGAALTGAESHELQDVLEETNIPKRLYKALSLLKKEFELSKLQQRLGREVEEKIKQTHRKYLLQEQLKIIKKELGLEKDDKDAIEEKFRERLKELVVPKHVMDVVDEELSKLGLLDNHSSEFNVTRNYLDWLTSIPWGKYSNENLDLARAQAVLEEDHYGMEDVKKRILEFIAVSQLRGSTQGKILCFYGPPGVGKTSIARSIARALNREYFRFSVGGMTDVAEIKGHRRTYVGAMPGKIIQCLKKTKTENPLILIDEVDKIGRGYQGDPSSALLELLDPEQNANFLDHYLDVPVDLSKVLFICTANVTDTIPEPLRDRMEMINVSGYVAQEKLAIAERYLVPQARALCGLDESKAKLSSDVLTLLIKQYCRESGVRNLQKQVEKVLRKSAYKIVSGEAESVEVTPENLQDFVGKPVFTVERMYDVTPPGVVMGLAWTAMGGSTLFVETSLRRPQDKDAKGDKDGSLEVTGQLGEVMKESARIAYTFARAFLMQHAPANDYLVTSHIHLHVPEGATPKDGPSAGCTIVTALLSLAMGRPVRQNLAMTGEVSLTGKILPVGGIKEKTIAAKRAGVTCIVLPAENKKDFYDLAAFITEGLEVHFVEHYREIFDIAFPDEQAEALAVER
# [2] = target: T1, Human Lon protease with Myc tag (human); assay: affinity purification with mass spectrometry; anti-myc Co-IP from 293/Lon cells; eluate resolved by 1-D SDS-PAGE, bands digested in gel and identified by mass spectrometry
Substance,binding [1],binding [2]
"10 kDa heat-shock protein, mitochondrial (HSP10) (from UniProt P61604 1-102)",binds,–
78 kDa glucose-regulated protein (GRP78) (from UniProt P11021 19-654),binds,binds
Annexin A2 (from UniProt P07355 1-339),binds,–
Caspase 14 (human (endogenous in 293)) (enzyme),binds,–
Myosin 9 (from UniProt P35579 1-1960),binds,binds
Myosin 10 (from UniProt P35580 1-1976),binds,binds
NADH dehydrogenase [ubiquinone] iron-sulfur protein 8 (NDUFS8) (from UniProt O00217 35-210),binds,–
"Stress-70 protein, mitochondrial (mtHSP70) (from UniProt P38646 47-679)",binds,binds

# Results are given in words; binding and its absence hold for the method and conditions named. In cells and extracts the contact can be indirect. A yes stands for co-enrichment or nearness to the bait. Other partners may have been found. Tags and fused reporters may be left off the sequences shown.
